The conditions of data set [1]: Supplementary Table S1; cited from earlier work.
Data set [2] deals with rat primary cortical neurons. In words: MEA hazard scoring in rat primary cortical neuronal cultures. Conditions: up to 30-fold its free Cmax.

The values below come from publication PMC11170107, “Development of a new hazard scoring system in primary neuronal cell cultures for drug-induced acute neuronal toxicity identification in early drug discovery” (Frontiers in Pharmacology, 2024).

For `COc1cc2c(cc1OC)C(=O)C(CC1CCN(Cc3ccccc3)CC1)C2` (centres unmarked) [Donepezil], the “Free Cmax highest” value in data set [1] is on record as 0.01 µM. Further, the “changes in vitro on MEA” value in data set [2] is recorded as “did not induce any changes”.
